The text below walks through data of PubChem BioAssay AID2685 (National Center for Advancing Translational Sciences (NCATS), 2010).

Molecules are shown by their SMILES. Some of the results follow. The main result of the screen is listed elsewhere. These columns were measured beside it and carry no call. The list favours compounds with an active or inconclusive main result. Potencies come from curve fits of mixed quality, noted in brackets.

The test in a line: qHTS Assay for Lipid Storage Modulators in Drosophila S3 Cells.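 As to cell number change: cells counted by Cell Tracker Red CMTPX staining in the red channel.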 Conditions: BODIPY lipid droplet fluorescence, 18-24 h; for cell number change: measured here: cell count max response, cells fed with added oleic acid. In short, it runs like this:
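Drosophila S3 cells loaded with oleic acid (400 uM, as added) and compounds at several concentrations; lipid droplets imaged by 488-nm laser-scanning cytometry, 500–530 nm intensity and object ratio to cell channel. Percent activity normalized to 20 uM Triacsin C.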
Background: In qHTS, concentration-response curves come from the screen itself.

Where [1] appears, read: measured here: lipid fluorescence (Fed channel) AC50, cells fed with added oleic acid.
Setting [2] is: measured here: cell number channel AC50, cells fed with added oleic acid.

Regarding `Nc1nnc(CC2=CCCCC2)s1`, the AC50 (commonly the concentration giving half of the maximal activity seen) under setting [1] was 1.64 µM [falling, partial curve].

For the compound `O=c1[nH]ncc(N/N=C\c2ccncc2)c1Cl`, the cell number change is 31%. Under setting [2], the AC50 is 6.51 µM [rising, single point].

Turning to `COc1ccc(OC)c(C(=O)COC(=O)COc2ccccc2F)c1`, the cell number change is 11.5%.

Turning to `Cc1cc2nc3n(c2cc1C)CC1CC(C(=O)NCc2cccc(C(F)(F)F)c2)N(C)C31` (stereo not given), the cell number change was found to be 4.09%. Under setting [1], the half-maximal activity concentration (AC50) is 13 µM [rising, single point].

As to `COC(=O)c1ccccc1NC(=O)Cn1cc2c(n1)CCC(C)C2` (stereo not given), the cell number change came out at 15.1%. Under setting [1], the AC50 was 18.4 µM [rising, partial curve, poor fit].

Take `COc1ccc(S(=O)(=O)N2CCC(C(=O)N3CCOCC3)CC2)cc1Cl`: the cell number change is -17.6%. For the same compound, the concentration at half-maximal activity (AC50) under setting [2] is 3.66 µM [falling, single point]. Under setting [1], the AC50 was 16.4 µM [falling, single point].

`Cc1cc(N/N=C/c2ccc(F)cc2)nc(NCc2ccccc2)n1`: the cell number change is -69.7%. Besides, under setting [2], the AC50 is 29.1 µM [falling, single point].

In the case of `N#Cc1ccc(C(c2nnnn2Cc2ccccc2)N2CCCC2)cc1` (stereo not given), the cell number change was -18.1%. Further, the concentration at half-maximal activity (AC50) under setting [1] is 0.116 µM [falling, full curve, poor fit].

Turning to `CC(C)(C)C1CCC(OC(=O)c2ccncc2)CC1` (stereo not given), the cell number change was -4.36%. Further, the AC50 under setting [2] was 0.517 µM [falling, single point].

Regarding `CC(=O)N1CCN(c2ccc(NC(=S)NC(=O)c3ccc(C)c([N+](=O)[O-])c3)cc2)CC1`, the cell number change is -4.61%. For the same compound, the AC50 under setting [1] is 29.1 µM [falling, single point].

Turning to `CN(c1ccccc1C(=O)Nc1cccnc1)S(C)(=O)=O`, the cell number change is 0.255%.

`COc1ccc(C(=O)n2c(-c3ccco3)nc3ccccc32)cc1`: the cell number change was -26.9%. In addition, the half-maximal activity concentration (AC50) under setting [1] was 29.1 µM [falling, single point].

As for `Cn1c2ccccc2c2cc(C(=O)N3CCN(CCO)CC3)sc21`, the cell number change came out at 41.5%. In addition, the AC50 under setting [2] is 29.1 µM [rising, single point].

Consider `Cc1ccc(N2C(=O)[C@@H]3[C@H](C2=O)C2c4ccccc4C=NN2[C@@H]3C(=O)c2ccc(Cl)cc2)cc1` (stereo not given in full), for which the cell number change is -17.8%.

With `CCCOc1cc(NCc2ccccc2)c2ncn(C(C)C)c2c1`, the cell number change was -70.2%. Moreover, the AC50 under setting [2] was 13 µM [falling, partial curve].

On to `CC(=O)Nc1ccc(NC(=O)COC(=O)C2(c3ccc(Cl)cc3)CCCC2)cc1`, for which the cell number change is 13.3%. Also, the AC50 under setting [1] is 20.6 µM [rising, single point].

Regarding `Cc1ccc(Sc2ncccc2C(=O)N(C)Cc2cccs2)c(C)c1`, the cell number change was -16.2%. The half-maximal activity concentration (AC50) under setting [2] was 0.651 µM [falling, full curve]. Also, the AC50 under setting [1] was 29.1 µM [rising, single point].

Turning to `CCCC(C)NC(=O)CSc1nc(-c2ccccc2)cn1N` (stereo not given), the AC50 under setting [1] is 6.51 µM [rising, single point].

With `N#Cc1ccc(-c2cccnc2)nc1SCC(=O)Nc1sc2c(c1C#N)CCC2`, the cell number change is -76.8%. Also, the half-maximal activity concentration (AC50) under setting [2] was 0.731 µM [rising, partial curve, poor fit].

As to `O=C(O)C1C2C=CC(C2)C1C(=O)NCCCn1ccnc1` (stereo not given), the half-maximal activity concentration (AC50) is, setting by setting: under setting [2], 0.517 µM [falling, single point]; under setting [1], 0.731 µM [falling, single point].

For the compound `COC(=O)c1ccc(C(=O)OC)c(NC(=S)N2CCC(N3CCCCC3)CC2)c1`, the AC50 under setting [1] was 0.82 µM [rising, full curve].

In the case of `CCCn1c(NCc2c[nH]c3ccccc23)nc2ccccc21`, the concentration at half-maximal activity (AC50) is 5.17 µM [falling, single point] under setting [2] and 0.0326 µM [falling, full curve, poor fit] under setting [1].

Consider `O=C(c1ccc(OC2CCN(CCc3ccccc3)CC2)cc1)N1CCC(CO)CC1`, for which the concentration at half-maximal activity (AC50) under setting [1] was 6.51 µM [falling, single point].

As for `CCCCCCCCCCOC(=O)Cn1c(COc2cccc(OC)c2)[n+](C)c2ccccc21`, the cell number change is -69.3%. The half-maximal activity concentration (AC50) under setting [2] is 11.6 µM [falling, partial curve]. Also, under setting [1], the AC50 was 10.3 µM [falling, partial curve].

As for `CC(C)c1c(C(=O)N/N=C/c2cccc3ccccc23)nnn1-c1nonc1N`, the cell number change was -13.3%. Also, the AC50 under setting [1] is 6.51 µM [falling, single point].

On to `COc1cc(C)c(CN2CCN(C(C)C(=O)NC(C)c3ccccc3)CC2)cc1OC` (stereo not given), for which the cell number change is -15.8%.

`CCNc1nc(SCc2ccccc2)nc(N2CCOCC2)n1`: the cell number change was -1.65%. Further, under setting [1], the AC50 was 1.64 µM [rising, full curve].

As to `CC(C)C[C@H](NC(=O)c1[nH]cnc1C(=O)N[C@@H](C)C(=O)OCc1ccccc1)C(=O)OC(C)(C)C`, the cell number change worked out at 14.7%. For the same compound, under setting [1], the AC50 was 2.59 µM [falling, partial curve, poor fit].

As to `Cn1c(=O)[nH]c2cc(Cl)cnc21`, the cell number change is 6.92%.

For the compound `COC(=O)c1cc(CN2CCN(c3ccccc3C)CC2)ccc1O`, the cell number change is 17.4%. Besides, the AC50 under setting [1] was 29.1 µM [rising, single point].

`CCOC(=O)C1CCN(C(=O)Cc2c(C(=O)O)[nH]c3ccccc23)CC1`: the cell number change came out at 18.7%. For the same compound, the concentration at half-maximal activity (AC50) under setting [1] is 0.00461 µM [falling, full curve, poor fit].

Turning to `COc1cc(CCC(=O)Nc2nnc(C)s2)cc(OC)c1OC`, the cell number change is -4.35%. Moreover, the AC50 under setting [1] was 0.58 µM [rising, single point].

As for `C/C=C(\NC(C)=O)c1ccccc1`, the cell number change was -15.1%.

In the case of `CCOc1cc(S(=O)(=O)Nc2ccc(CC)cc2)ccc1Cl`, the cell number change was -91.2%. The concentration at half-maximal activity (AC50) under setting [2] was 29.1 µM [falling, single point].

As for `CCCCNC(=O)n1c(SC)nc2ccccc21`, the cell number change was -117%. Moreover, the concentration at half-maximal activity (AC50) under setting [2] was 4.61 µM [falling, full curve].

Take `COc1cccc(N=C(N)N)c1`: the cell number change was determined as 24.2%. For the same compound, the AC50 under setting [1] was 0.651 µM [falling, single point].

For `COc1ccc(/C=C/C(=O)NC(=S)N2CCN(c3ccccn3)CC2)cc1`, the cell number change amounted to 5.87%. For the same compound, the half-maximal activity concentration (AC50) under setting [2] was 0.116 µM [rising, full curve, poor fit].

Regarding `Cc1ccccc1S(=O)(=O)Cc1ccc(C(=O)NCc2cccs2)o1`, the cell number change worked out at 143%. Moreover, under setting [2], the half-maximal activity concentration (AC50) was 5.8 µM [rising, partial curve]. Besides, the AC50 under setting [1] was 1.64 µM [rising, full curve].

On to `CCc1ccccc1OCC(=O)NNCC(=O)Nc1cccc(C#N)c1`, for which the cell number change is -1.69%. For the same compound, the AC50 under setting [1] was 18.4 µM [rising, single point].

As to `CC(NC(=O)C1CCN(C(=O)Nc2ccccc2)CC1)c1ccc(Cl)cc1` (stereo not given), the cell number change worked out at 6.37%. Under setting [1], the concentration at half-maximal activity (AC50) is 6.51 µM [falling, single point].

For `CCc1cccc2c(C(=O)COC(=O)c3c(C)noc3C)c[nH]c12`, the cell number change was -20.2%.

For the compound `Cc1cc([N+](=O)[O-])nn1CC(=O)Nc1ccc(Cc2ccncc2)cc1`, the cell number change came to 32.4%. Besides, the concentration at half-maximal activity (AC50) under setting [2] is 5.17 µM [rising, partial curve]. The concentration at half-maximal activity (AC50) under setting [1] was 8.2 µM [rising, partial curve].

As for `CC1(c2ccc(Cl)cc2)NC(=O)N(CC(=O)NCCC2=CCCCC2)C1=O` (stereo not given), the cell number change is -8.65%. Besides, the half-maximal activity concentration (AC50) under setting [1] was 29.1 µM [falling, single point].

As for `CN1C(=O)C2(c3ccccc31)C1CCCC=C1C(C#N)=C(N)C2(C#N)C#N` (stereo not given), the cell number change was -25.6%. The AC50 under setting [1] is 0.164 µM [rising, full curve, poor fit].

For `CCCCCN(C(=O)CN(C)Cc1ccc(OC)cc1OC)c1c(N)n(CCCC)c(=O)[nH]c1=O`, under setting [1], the AC50 was 2.06 µM [falling, single point].

As for `CCN1C(=O)C(Cc2nc3ccccc3c(=O)n2C)c2ccccc21` (stereo not given), the cell number change turned out to be 1.63%. For the same compound, under setting [1], the AC50 is 23.1 µM [rising, partial curve].

Consider `Cc1cc(CNC(=O)CCc2nnc(CCCc3ccccc3)o2)nn1C`, for which the cell number change was 26.3%.

Regarding `CCCN(CCC)CCNC(=O)c1cc2c(=O)n(CC)c3ccccc3c2s1`, the cell number change amounted to 18.6%. For the same compound, the AC50 under setting [1] was 0.291 µM [rising, partial curve].

As for `O=C(NCc1ccc2c(c1)OCO2)C(=O)NCC1OCCN1S(=O)(=O)c1ccc(Cl)cc1` (stereo not given), the cell number change stood at 36%. Under setting [2], the concentration at half-maximal activity (AC50) is 25.9 µM [rising, partial curve, poor fit].

`CS(=O)(=O)c1ccccc1C(=O)NCCC(c1ccccc1)c1ccccc1`: the cell number change was -22.9%.

For the compound `COc1ccccc1C(CCNCc1ccccc1)c1ccc(OC(C)C)cc1` (stereo not given), the cell number change was -64.1%. For the same compound, under setting [2], the AC50 is 18.4 µM [falling, partial curve]. In addition, the AC50 under setting [1] was 29.1 µM [falling, single point].

For the compound `Cc1ccc(NC(=O)CCC(=O)N2CCC(C)CC2)c([N+](=O)[O-])c1`, the cell number change was found to be 37.6%. The AC50 under setting [2] is 29.1 µM [rising, single point].

Consider `Cc1cc(C)nc(NC(=O)COc2cc(Cl)cc(Cl)c2)n1`, for which the cell number change came to 4.41%. In addition, the AC50 under setting [1] is 16.4 µM [falling, single point].

In the case of `COc1ccc(N(C(=O)CCl)C(C(=O)NCCc2ccccc2)c2cccs2)cc1` (stereo not given), the cell number change was -18.7%. The AC50 under setting [1] is 29.1 µM [falling, single point].

As for `O=S(=O)(NC1=NCCCCC1)c1ccccc1Cl`, the cell number change is -26.5%. In addition, the concentration at half-maximal activity (AC50) under setting [1] is 4.11 µM [falling, partial curve, poor fit].

For the compound `Cc1c(NC(=O)c2cc(=O)[nH]c3ccccc23)c(=O)n(-c2ccccc2)n1C`, the cell number change worked out at 9.15%. Moreover, the AC50 under setting [1] was 6.51 µM [falling, single point].

`CCOC(=O)C1=C(O)C(=O)N(c2ccc(S(N)(=O)=O)cc2)C1c1cccc([N+](=O)[O-])c1` (stereo not given): the cell number change is -35.9%. In addition, the AC50 under setting [2] was 14.6 µM [falling, partial curve, poor fit]. Moreover, under setting [1], the concentration at half-maximal activity (AC50) is 4.61 µM [falling, partial curve].

As to `CC(C)(Oc1ccc(Cl)cc1)C(=O)Nc1ccncc1`, the cell number change was -10.7%.

As for `O=C(CCNc1n[nH]c(=O)[nH]c1=O)N/N=C\c1ccc(Br)cc1`, the half-maximal activity concentration (AC50) under setting [1] is 29.1 µM [rising, single point].

Regarding `Cc1noc(C)c1CSc1nnc2scc(-c3ccccc3)n12`, the cell number change is -8.68%. Also, the AC50 under setting [1] was 2.06 µM [rising, single point].

As for `Cc1cc(Br)c(OCc2ccc(C(=O)N/N=C3\CC(=O)CC(C)(C)C3)cc2)c(Br)c1`, under setting [1], the concentration at half-maximal activity (AC50) is 0.0231 µM [falling, full curve, poor fit].

For `CC(C)n1ncc2c(C(=O)N3CCN(c4ccc(F)cc4)CC3)cc(-c3ccccc3)nc21`, the cell number change was -1.42%. For the same compound, under setting [2], the half-maximal activity concentration (AC50) is 2.06 µM [rising, single point]. The AC50 under setting [1] was 0.411 µM [rising, partial curve].
